# In all, about 6,900 compounds went through this assay and fewer than 10 were called active. Calls follow the shape of the dose curve; as a rule, active = well fitted curve in the direction sought with a large enough effect; inconclusive = small, poorly fitted or top-dose-only effect, or another doubt; inactive = no such curve, though single readings can be large or run the other way. This is one part of the list.
# By UniProt entry, the sequences of proteins in these tests, tags left out. Where a name states a change or a piece, a line headed by the entry shows the natural chain unless it says otherwise.
# UniProt C7C422: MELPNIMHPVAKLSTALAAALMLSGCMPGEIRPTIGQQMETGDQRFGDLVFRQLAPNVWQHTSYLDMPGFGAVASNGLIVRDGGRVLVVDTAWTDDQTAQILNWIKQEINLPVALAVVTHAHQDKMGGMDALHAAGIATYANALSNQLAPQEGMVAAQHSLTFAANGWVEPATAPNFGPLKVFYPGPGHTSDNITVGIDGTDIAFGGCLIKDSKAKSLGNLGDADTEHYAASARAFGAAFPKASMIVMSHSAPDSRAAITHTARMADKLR
# Molecular target: Metallo-beta-lactamase type 2 (Klebsiella pneumoniae) (UniProt C7C422)
# Assay: qHTS to identify inhibitors of the New Delhi Metallo-beta-lactamase (NDM): primary screen against the NCATS Gemini Collection; also: % of control where 0% means no effect
# Settings: NDM-1 enzyme, meropenem hydrolysis, absorbance 300 nm; at 38.4 µM (top of the series) unless noted
# Summary of the method: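 NDM-1 at 2 nM final in 50 mM HEPES pH 7.0, 1 uM ZnSO4, 0.01% Tween20, preincubated >30 min with compound. Meropenem 50 uM final added; absorbance at 300 nm after 30 min.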
row,Compound,activity % (negative = inhibition)
1,CCN(CC)c1cc(CCC(=O)N2CCN(c3cccc(OC)c3)CC2)ccn1,inactive: 14.2%
2,CCNc1ncnc2sc3c(c12)CCN(Cc1ccncc1)C3,inactive: 12%
3,CCCn1cc(-c2ccnc(NC3CCN(Cc4cccnc4)CC3)n2)c(C)n1,inactive: -1.13%
4,CN(CCC1CCOCC1)C(=O)c1ccc(OC2CCN(C(=O)C3CC3)CC2)cc1,inactive: 7.72%
5,O=S(=O)(Cc1ccccc1)N[C@H]1CO[C@H]2[C@@H]1OC[C@@H]2Nc1nccc(-c2cccc(F)c2)n1,inactive: -0.0409%
6,Fc1ccc(-c2noc([C@@H]3Cc4nc[nH]c4CN3CCCc3ccccc3)n2)cc1Cl,inactive: 3.38%
7,Cc1nc(N2CCC(C(=O)NCC3CCCO3)CC2)cc(C(F)(F)F)n1 (stereo unspecified),inactive: 13.6%
8,CC(=O)Nc1ccc2c(c1)S(=O)(=O)N=C(CC(C)C)N2CC(C)C,inactive: 17.7%
9,CCOC(=O)C(Cc1cccc(N2CCC(Nc3ccccc3)CC2)c1F)OC (stereo unspecified),inactive: 0.468%
10,O=C(c1cccs1)N1CCCC(Cc2noc(-c3cnccn3)n2)C1 (stereo unspecified),inactive: 0.91%
11,O=C(Cc1ccncc1)N1CC(F)(F)C[C@H]1c1nc(C2CC2)no1,inactive: -2.37%
12,O=C(Nc1ccccc1F)C1CCCN(Cc2cccc(-c3cccs3)c2)C1 (stereo unspecified),inactive: 1.32%
13,CN(C)S(=O)(=O)N1CCC2(CCC(=O)N(CC3CC3)CC2)CC1,inactive: 1.44%
14,CC(C)c1nc2ccccc2n1CC(=O)N1CC[C@](C)(O)[C@@H](O)C1,inactive: -2.4%
15,COc1ccccc1/C=C/CN1CCC(n2cc(CN(C)C)nn2)CC1,inactive: 27.5%
16,CCn1c(CN2CCN(c3nc4ccccc4s3)CC2)nnc1C1CC(N)C1 (stereo unspecified),inactive: -5.98%
17,Clc1cc(NCc2ccccc2Cl)n2nccc2n1,inactive: 8.04% [at 57.5 µM]
18,O=c1c2nc(-c3ccsc3)ccc2ncn1-c1ccccc1,inactive: 37.2% [at 57.5 µM]
19,CCn1cc(S(=O)(=O)N2CCC[C@H]2c2nc(-c3ccc(F)cc3)n[nH]2)cn1,inactive: 3.87%
20,Cc1noc([C@@H]2CN(C3CCCCCC3)C[C@H]2CO)n1,inactive: -1.35%
21,O=C(c1cscn1)N1CCC2(CCCN(CCC3CCCCC3)C2=O)C1 (stereo unspecified),inactive: 0.914%
22,Fc1ccc(-c2cccc(CN3CCOCC3)c2)c(Cl)c1,inactive: 15.7%

# Individual results from above.
# activity % (negative = inhibition) with CC(C)c1nc2ccccc2n1CC(=O)N1CC[C@](C)(O)[C@@H](O)C1 reads inactive: -2.4%
# activity % (negative = inhibition) with Cc1noc([C@@H]2CN(C3CCCCCC3)C[C@H]2CO)n1 reads inactive: -1.35%
# activity % (negative = inhibition) with CCCn1cc(-c2ccnc(NC3CCN(Cc4cccnc4)CC3)n2)c(C)n1 reads inactive: -1.13%
# activity % (negative = inhibition) with O=C(c1cscn1)N1CCC2(CCCN(CCC3CCCCC3)C2=O)C1 (stereo unspecified) reads inactive: 0.914%

# (cont.)

row,Compound,activity % (negative = inhibition)
1,COc1cccc(-c2nc3cc4c(cc3cc2CN2CCOCC2)OCO4)c1OC,inactive: 48.5%
2,COc1cc(=O)n2c(c1C(=O)NCc1ccccc1Cl)CCCC2,inactive: 14.2%
3,COc1ncccc1-c1cc2c(ccn2CC2CCN([S+](C)(=O)[O-])CC2)c(N2CCOCC2)n1,inactive: 4.08%
4,Cn1cc(CN2CCCCCNC(=O)[C@@H]3CCC[C@@H]32)c2ccccc21,inactive: -0.919%
5,Cc1cnc(CC2CCN(C(=O)Cc3cccc(F)c3)CC2)n1CC1CC1,inactive: -14.5%
6,CCOCCn1nc(C)cc1C(=O)N[C@H]1[C@H]2CCO[C@H]2[C@@H]1N(C)C,inactive: -0.113%
7,COCc1noc(CCNc2nc(C)nc3c2cnn3C)n1,inactive: 13.4%
8,COCCN1C(=O)N(CCCc2cccnc2)C(=O)C12CCN(C/C=C/c1ccc(OC)cc1)CC2,inactive: 0.0147%
9,COc1ccccc1NC(=O)N1CCCC2(CCC(=O)N(CC3CC3)C2)C1 (stereo unspecified),inactive: 15.3%
10,Cc1cc(C)c2nonc2c1S(=O)(=O)N1C[C@@H](N(C)C)[C@H](C(C)C)C1,inactive: -0.543%
11,CCn1nccc1C(=O)N1CC[C@H](n2c(=O)n(C)c3cccnc32)C1,inactive: 18.1%
12,CCC(C)(C)NC(=O)c1cccc2c1CCN2C(=O)Nc1ccc(C)cc1,inactive: 8.42%
13,Cc1cnc(-c2cccnc2)n1CC1CCN(S(=O)(=O)c2ccccc2)CC1,inactive: 1.81%
14,Cc1nc(CCNS(=O)(=O)c2c(C)nn(C)c2C)no1,inactive: -8.42%
15,Cc1nc(C(=O)NC2CC(c3cc(N4CCC(O)C4)ncn3)C2)cs1 (stereo unspecified),inactive: 0.894%
16,C[C@]1(CO)[C@H]2Cc3sc(NC(=O)c4ccc(F)cc4)nc3[C@@H](CC(=O)NCc3ccccc3)[C@]2(C)CC[C@H]1O,inactive: 29.3%
17,COc1ccc(C(=O)NCCc2ncc(C)n2C2CC2)cn1,inactive: -3.69%
18,N#Cc1cccc(C(=O)N2C[C@@H](Oc3cccnc3)C[C@H]2C(=O)NC2CC2)c1,inactive: -0.49%
19,Cc1cccnc1C(=O)N[C@@H]1CN(S(C)(=O)=O)C[C@H]1CN(C)C,inactive: 14%
20,O=C1NC(=NC2CCCCC2)C2(CCN(Cc3ccccc3)C2)N1c1cccnc1 (stereo unspecified),inactive: 12%
21,O=C(C1CCc2nnc(-c3ccc(Cl)cc3Cl)n21)N1CCCC1 (stereo unspecified),inactive: -0.945%
22,CC(C)c1noc(-c2cn(C3CCCN(C(=O)c4ccc[nH]4)C3)nn2)n1 (stereo unspecified),inactive: -6.31%

row,Compound,activity % (negative = inhibition)
1,CCC1C(=O)N(C)CCN1C(=O)c1coc(COc2ccc3c(c2)OCO3)n1 (stereo unspecified),inactive: 2.22%
2,O=c1cc(-c2ccccn2)oc2c(Nc3cccnc3)nccc12,inactive: 7.61% [at 57.5 µM]
3,Cc1nc2cccnc2n1CC1CCCN(S(=O)(=O)c2ccc3c(c2)OCCO3)C1 (stereo unspecified),inactive: 2.02%
4,O=C(NCC1CCOCC1)C1COc2ccccc2O1 (stereo unspecified),inactive: -1.26%
5,Cc1cc(NC(=O)C2CCN(c3cc(C(F)(F)F)ncn3)CC2)ccc1Br,inactive: 12.9%
6,CCn1ccc(C(=O)N2CCC3(CC2)CC(N(C(=O)c2ccccc2)C2CC2)CCO3)n1 (stereo unspecified),inactive: 12.3%
7,Cc1nn(C)c(C)c1CCC(=O)NC1CCc2nnc(C3CC3)n2CC1 (stereo unspecified),inactive: 0.977%
8,COCC(=O)N1CCN(Cc2ccccc2-c2ccc(C)c(Cl)c2)CC1,inactive: -9.24%
9,CC(C)(CN1CCC(Cc2ccc(C(=O)O)cc2)C1)N1CCOCC1 (stereo unspecified),inactive: 8.7%
10,COc1cccc(CNC(=O)C2(N3C[C@@H](C)O[C@@H](C)C3)Cc3ccccc3C2)c1,inactive: 3.16%
11,O=C(NCCc1ccccc1)c1nc2sccn2c1-c1cccnc1,inactive: 3.21%
12,NC(=O)[C@@H](Cc1ccccc1)NC(=O)C1=C[C@@H](NC(=O)CS(=O)(=O)c2ccccc2)[C@@H](O)[C@H](O)C1,inactive: 15.5%
13,Cc1noc(-c2cccc(OC3CN(C(=O)c4ccco4)C3)c2)n1,inactive: 31.6%
14,O=CN1CCCC(n2cnc3cccnc32)C1 (stereo unspecified),inactive: 1.83% [at 77.1 µM]
15,CC1CCN(CC2CCCN(C(=O)COc3ccc(F)cc3)CC2)CC1 (stereo unspecified),inactive: -3.41%
16,CC(=O)N1CCc2[nH]cnc2C12CCN(C(=O)CCn1nnnc1C)CC2,inactive: 24.6%
17,c1nc(N2CCOCC2)c2c3c(sc2n1)CN(CC1CCCCC1)CC3,inactive: 4.2%
18,CN1CCCCCCN(C(=O)NCc2ccccc2)CCC1=O,inactive: 0.349%
19,CCc1ccc(N2CC(c3noc(C4(c5ccccc5)CC4)n3)CC2=O)cc1 (stereo unspecified),inactive: -1.39%
20,Cc1noc(C2CCCCN2C(=O)c2ccoc2)n1 (stereo unspecified),inactive: 0.293%
21,O=C(C[C@@H]1CCNC[C@@H]1Cc1cc(CN2CCOCC2)on1)N1CCN(c2ccc(F)cc2)CC1,inactive: 2.8%
22,CCc1noc(-c2ccn3c(CNC(=O)c4ccc(C)c(F)c4)nnc3c2)n1,inactive: 16.2%

row,Compound,activity % (negative = inhibition)
1,Cc1cc(CC(=O)N2C[C@@H](COCC3CC3)[C@H](c3ccncc3)C2)on1,inactive: -1.54%
2,CN(c1ccccc1)c1cc(=O)c2ccnc(-c3cncnc3)c2o1,inactive: 12.7% [at 57.5 µM]
3,O=C(c1ccnc(-c2ccncc2)c1)N1CCCC1,inactive: -0.667%
4,CC(=O)N1CCN(C(=O)c2cn3cc(-c4ccc(F)cc4)sc3n2)CC1,inactive: 16.2%
5,COCCNC(=O)c1ccc(-c2ccc(N3CCCCC3)nc2)cc1,inactive: 4.91%
6,CCC(C)C(=O)N1CCC2(CCc3nn(Cc4ccccc4)c(=O)n3CC2)CC1 (stereo unspecified),inactive: -3.02%
7,CN(C(=O)Cc1c[nH]c2ccccc12)C1CCc2nn(C)c(=O)n2CC1 (stereo unspecified),inactive: 30.5%
8,Cc1nn(CCC#N)c(C)c1[C@@H]1C=C[C@@H](NCc2ccc(C(C)C)cc2)C1,inactive: -0.892% [at 57.5 µM]
9,COc1ccc(Nc2cnc3ccc(-c4ccccc4)nn23)cc1,inactive: 12.3% [at 57.5 µM]
10,CN1C[C@@H](NC(=O)NC2CCCCC2)C[C@H]1c1nc(Cc2ccccc2)no1,inactive: -1.03% [at 57.5 µM]
11,NC(=O)CO[C@@H]1CO[C@H]2[C@@H]1OC[C@@H]2NC(=O)NCc1ccccc1,inactive: 1.19% [at 57.5 µM]
12,COc1ccc(NC(=O)[C@@H]2C[C@H](c3ccc(F)cc3)N(Cc3csc(C)n3)C2)cn1,inactive: 5.33% [at 57.5 µM]
13,Cc1cc(CN(C)C2CCCc3ccccc32)no1 (stereo unspecified),inactive: 68.4% [at 57.5 µM]
14,CN1Cc2ncnc(N3CCOCC3)c2CN(c2cccnc2)C1=O,inactive: 2.11% [at 57.5 µM]
15,O=C(c1ccccc1-c1ccccc1)N1CCCn2cncc2C1,inactive: -6.16%
16,CCCS(=O)(=O)NCC1CN(CC2CC2)CC12CCCCC2 (stereo unspecified),inactive: -9.24%
17,c1ccc(CC2=NOC3(CCN(Cc4ccccc4)C3)C2)cc1 (stereo unspecified),inactive: 5.44% [at 57.5 µM]
18,COc1ccc2c(c1)OCC(CNC(=O)c1ccc(-c3nnn(C)n3)cc1)C2 (stereo unspecified),inactive: 0.329%
19,O=C(c1nnc(CN2CCN(c3ccccn3)CC2)n1-c1cccnc1)N1CCC[C@@H]1c1cccc(F)c1,inactive: -8.91%
20,O=C(NCCc1cccs1)C1CCN(c2cc(C(F)(F)F)ncn2)CC1,inactive: 1.3%

# Reference: PubChem BioAssay AID1794845 (National Center for Advancing Translational Sciences (NCATS), 2023)
